Here are results for 5 targets from the supplement of paper PMC6411743.

Protein sequences, listed by entry. Tags and fused reporters are not part of them. Lines headed by an entry give the natural chain unless they say otherwise; changes in a name come on top.
UniProt P30519: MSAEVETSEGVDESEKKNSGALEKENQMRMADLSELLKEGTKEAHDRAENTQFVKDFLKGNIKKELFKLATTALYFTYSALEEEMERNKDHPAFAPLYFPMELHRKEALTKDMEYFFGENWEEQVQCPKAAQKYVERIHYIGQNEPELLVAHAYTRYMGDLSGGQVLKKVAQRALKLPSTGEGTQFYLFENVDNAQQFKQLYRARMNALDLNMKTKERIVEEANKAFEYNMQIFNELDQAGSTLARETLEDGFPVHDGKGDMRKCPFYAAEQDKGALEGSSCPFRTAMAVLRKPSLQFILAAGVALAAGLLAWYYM
UniProt Q9Y371: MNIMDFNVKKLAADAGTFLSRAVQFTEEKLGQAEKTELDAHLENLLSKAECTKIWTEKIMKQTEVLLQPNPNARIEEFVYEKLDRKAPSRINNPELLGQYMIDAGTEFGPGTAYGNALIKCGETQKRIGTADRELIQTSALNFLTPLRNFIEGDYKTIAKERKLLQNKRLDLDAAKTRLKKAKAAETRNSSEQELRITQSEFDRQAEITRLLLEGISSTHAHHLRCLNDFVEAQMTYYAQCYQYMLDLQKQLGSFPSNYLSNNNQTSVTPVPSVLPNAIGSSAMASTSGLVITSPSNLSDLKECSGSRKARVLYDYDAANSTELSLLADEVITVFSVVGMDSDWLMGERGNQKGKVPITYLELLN
UniProt Q6DD87: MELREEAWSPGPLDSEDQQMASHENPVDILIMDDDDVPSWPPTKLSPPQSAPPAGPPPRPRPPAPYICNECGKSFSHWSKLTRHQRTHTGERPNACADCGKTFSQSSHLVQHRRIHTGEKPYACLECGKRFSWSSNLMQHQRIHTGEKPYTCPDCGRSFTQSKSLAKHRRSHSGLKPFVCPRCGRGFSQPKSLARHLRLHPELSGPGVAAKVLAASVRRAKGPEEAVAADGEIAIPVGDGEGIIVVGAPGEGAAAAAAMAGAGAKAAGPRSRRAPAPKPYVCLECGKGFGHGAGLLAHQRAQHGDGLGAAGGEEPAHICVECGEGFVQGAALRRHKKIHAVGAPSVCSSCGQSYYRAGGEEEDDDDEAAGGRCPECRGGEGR
UniProt O00221: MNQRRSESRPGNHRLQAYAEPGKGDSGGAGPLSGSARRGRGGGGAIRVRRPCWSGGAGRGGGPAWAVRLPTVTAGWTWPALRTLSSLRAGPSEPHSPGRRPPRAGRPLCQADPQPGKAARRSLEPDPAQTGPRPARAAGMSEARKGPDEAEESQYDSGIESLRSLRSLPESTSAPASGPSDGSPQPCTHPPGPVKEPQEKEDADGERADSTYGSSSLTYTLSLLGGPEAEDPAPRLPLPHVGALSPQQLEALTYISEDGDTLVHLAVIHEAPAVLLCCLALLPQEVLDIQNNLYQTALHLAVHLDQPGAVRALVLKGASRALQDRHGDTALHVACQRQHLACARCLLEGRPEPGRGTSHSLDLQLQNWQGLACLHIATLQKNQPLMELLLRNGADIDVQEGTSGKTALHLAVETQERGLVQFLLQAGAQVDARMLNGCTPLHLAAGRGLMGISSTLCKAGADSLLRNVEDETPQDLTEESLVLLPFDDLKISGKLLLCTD

Compound in the experiment: Nc1nc2c(ncn2[C@@H]2O[C@H](COP(=O)(O)OP(=O)(O)OP(=O)(O)O)[C@@H](O)[C@H]2O)c(=O)[nH]1 [guanosine triphosphate]
Briefly: NP40-soluble protein abundance relative to vehicle (solubility fold change) (ratio); higher = more soluble protein in presence of GTP. The method, then:
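Solubility proteome profiling in Jurkat crude lysate. Lysate was treated with Mg-GTP (0.1-10 mM) for 10 min at room temperature and 3 min at 37 °C, then solubilised with 0.8% NP40 and benzonase, followed by ultracentrifugation. Proteins were quantified by TMT10 LC-MS/MS; the value is the NP40-soluble abundance relative to the NP40-processed vehicle, from 3 independent experiments.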

± gives the standard deviation of the averaged measurements. Some of the results follow.

For the target “A0A087WT44|P30519 and related entries (UniProt P30519)”, the NP40-soluble protein abundance by setting is: (concentration: 0.1mM) 0.916 ± 0.059; (concentration: 0.5mM) 0.91 ± 0.071; (concentration: 1mM) 0.954 ± 0.074; (concentration: 2mM) 0.909 ± 0.1; (concentration: 4mM) 0.9 ± 0.094; (concentration: 6mM) 0.893 ± 0.098. For the same target, the NP40-soluble protein abundance amounted to 0.887 ± 0.075 (concentration: 8mM) and 0.894 ± 0.077 (concentration: 10mM).

Regarding “A0A087WW40|Q9Y371 and related entries (UniProt Q9Y371)”, the NP40-soluble protein abundance turned out to be 0.937 ± 0.098 (concentration: 0.1mM); 0.95 ± 0.09 (concentration: 0.5mM); 0.933 ± 0.094 (concentration: 1mM); 0.888 ± 0.12 (concentration: 2mM); 0.875 ± 0.11 (concentration: 4mM); 0.882 ± 0.096 (concentration: 6mM). Also, the NP40-soluble protein abundance stood at 0.883 ± 0.084 (concentration: 8mM) and 0.879 ± 0.083 (concentration: 10mM).

Take A0A024R4M0|P46781 (UniProt P46781): the NP40-soluble protein abundance (concentration: 0.1mM) came to 0.943 ± 0.11; the NP40-soluble protein abundance (concentration: 0.5mM) turned out to be 0.994 ± 0.17; the NP40-soluble protein abundance (concentration: 1mM) is 0.912 ± 0.21; the NP40-soluble protein abundance (concentration: 2mM) was found to be 0.909 ± 0.28; the NP40-soluble protein abundance (concentration: 4mM) turned out to be 0.821 ± 0.33; the NP40-soluble protein abundance (concentration: 6mM) came out at 0.712 ± 0.28. The NP40-soluble protein abundance runs as follows: (concentration: 8mM) 0.601 ± 0.2; (concentration: 10mM) 0.66 ± 0.25.

As to A0A087WUD1|Q6DD87 (UniProt Q6DD87), the NP40-soluble protein abundance (concentration: 0.1mM) is 1.02 ± 0.039; the NP40-soluble protein abundance (concentration: 0.5mM) worked out at 1.03 ± 0.043; the NP40-soluble protein abundance (concentration: 1mM) was determined as 1.001 ± 0.0097; the NP40-soluble protein abundance (concentration: 2mM) came to 0.963 ± 0.011; the NP40-soluble protein abundance (concentration: 4mM) came to 0.962 ± 0.037; the NP40-soluble protein abundance (concentration: 6mM) came out at 0.947 ± 0.029. In addition, the NP40-soluble protein abundance runs as follows: (concentration: 8mM) 1 ± 0.04; (concentration: 10mM) 0.996 ± 0.049.

As to “A0A087WVX9|O00221 and related entries (UniProt O00221)”, the NP40-soluble protein abundance reads like this: (concentration: 0.1mM) 1.01 ± 0.085; (concentration: 0.5mM) 0.953 ± 0.027; (concentration: 1mM) 0.958 ± 0.049; (concentration: 2mM) 0.966 ± 0.049; (concentration: 4mM) 0.964 ± 0.11; (concentration: 6mM) 0.966 ± 0.12. Also, the NP40-soluble protein abundance runs as follows: (concentration: 8mM) 0.974 ± 0.095; (concentration: 10mM) 0.914 ± 0.088.
